Some of the results follow. Baselines shift from plate to plate; read single values as rough.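 Hits were defined as a z-score below −3.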 Starred links: 1 amine or outer side, 2 acyl side, 3 side chain; linkers in the order of their positions; H or OH if unused. Positions of bridges follow the written chain, without caps; N, C: chain ends. Non-standard residues stand in square brackets, D forms with d. Residues, ends and D or L forms follow the SMILES beside them. Chains are numbered I, II in the order given. Actinocin(9to1) = Cc1c2oc3c(C)ccc(C(=O)[*:1])c3nc-2c(C(=O)[*:2])c(N)c1=O; NMeV = CN[C@H](C(=O)O)C(C)C; Sar = CNCC(=O)O
What follows are molecules tested against T1, YTHDF1 YTH domain (aa 365-554) (UniProt Q9BYJ9) (assay: tryptophan fluorescence intensity z-score (mean); higher = higher fluorescence, less quenching (negative = binding / quenching)). Conditions: 10 µM.
T1 sequence (whole entry): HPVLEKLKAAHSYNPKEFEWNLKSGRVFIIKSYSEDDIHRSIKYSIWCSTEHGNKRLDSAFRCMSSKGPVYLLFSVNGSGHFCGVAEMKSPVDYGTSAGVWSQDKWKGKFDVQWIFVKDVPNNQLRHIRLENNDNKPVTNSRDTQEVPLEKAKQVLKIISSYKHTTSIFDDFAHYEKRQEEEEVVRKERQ

Tryptophan fluorescence intensity z-score, inactive:
CCCC(=O)Nc1ccc(OCC(O)CNC(C)C)c(C(C)=O)c1 (configuration not stated) (plate: M 5-6) 0.00314
COc1c(O)cc(O)cc1O (plate: M 15-16) 0.623
O=C(Nc1ccccc1)OCC(CN1CCCCC1)OC(=O)Nc1ccccc1 (configuration not stated) (plate: M 11-12) 0.307
C[C@@H]1O[C@@H](O[C@H]2[C@H](Oc3cc(O)c4c(c3)O[C@H](c3ccc(O)cc3)CC4=O)O[C@H](CO)[C@@H](O)[C@@H]2O)[C@H](O)[C@H](O)[C@H]1O (plate: M 17-18) 0.196
COc1cc2c(cc1OC)Cc1cc(OC)c(OC)cc1Cc1cc(OC)c(OC)cc1C2 (plate: M 21-22) 1.49
N[C@@H](CC(=O)N1CCn2c(nnc2C(F)(F)F)C1)Cc1cc(F)c(F)cc1F (plate: M 11-12) 0.462
C#CC1(O)CC[C@H]2[C@@H]3CCC4=CC(=O)CC[C@@H]4[C@H]3CC[C@@]21CC (mixture of isomers) (plate: M 3-4) 0.0389
CC(=O)OCC(=O)[C@@]12OC3(CCCC3)O[C@@H]1C[C@H]1[C@@H]3CCC4=CC(=O)C=C[C@]4(C)[C@@]3(F)[C@@H](O)C[C@@]12C (plate: M 9-10) -0.46
COc1cc(O)c(C(=O)/C=C/c2ccc(O)c(OC)c2)c(OC)c1 (plate: M 19-20) -0.32
COc1cc(C(C)=O)cc(OC)c1O (plate: M 17-18) -0.0754
CC(C)=CCC/C(C)=C\CO (plate: M 17-18) -0.171
COCCCOc1ccnc(C[S+]([O-])c2nc3ccccc3[nH]2)c1C (configuration not stated) (plate: M 11-12) 0.204
O=C(CCCCC(=O)Nc1c(I)cc(I)c(C(=O)O)c1I)Nc1c(I)cc(I)c(C(=O)O)c1I (plate: M 5-6) 0.305
CNCC[C@@H](Oc1ccccc1C)c1ccccc1 (plate: M 11-12) -0.623
Cc1ccc(C(=O)C(C)CN2CCCCC2)cc1 (configuration not stated) (plate: M 23-24) 0.308
CCCCC1C(=O)N(c2ccccc2)N(c2ccccc2)C1=O (plate: M 5-6) 0.116
O=C(O)/C=C/C=C/c1ccccc1 (plate: M 17-18) -0.253
CC1=CC(=O)c2ccccc2C1=O (plate: M 7-8) 0.441
CC(=O)/N=c1/sc(S(N)(=O)=O)nn1C (plate: M 7-8) -0.377
COc1ccc(-c2cc(=O)c3c(O)c(OC)c(OC)c(OC)c3o2)cc1OC (plate: M 19-20) 0.427
N=C(N)N1CCc2ccccc2C1 (plate: M 13-14) 0.424
COCCCOc1cc(C[C@@H](C[C@H](N)[C@@H](O)C[C@H](C(=O)NCC(C)(C)C(N)=O)C(C)C)C(C)C)ccc1OC (plate: M 11-12) 0.399
CCCCOC(=O)c1ccc(O)cc1 (plate: M 13-14) 0.514
C#C[C@]1(OC(C)=O)CC[C@H]2[C@@H]3CCC4=CC(=O)CC[C@@H]4[C@H]3CC[C@@]21C (plate: M 3-4) -0.483
Cc1c2oc3c(C)ccc(C(=O)N[C@@H]4C(=O)N[C@H](C(C)C)C(=O)N5CCC[C@H]5C(=O)N(C)CC(=O)N(C)[C@@H](C(C)C)C(=O)O[C@@H]4C)c3nc-2c(C(=O)N[C@@H]2C(=O)N[C@H](C(C)C)C(=O)N3CCC[C@H]3C(=O)N(C)CC(=O)N(C)[C@@H](C(C)C)C(=O)O[C@@H]2C)c(N)c1=O (plate: M 1-2) (I: T[dV]P[Sar][NMeV] / II: T[dV]P[Sar][NMeV]; ester I:1-I:C, II:1-II:C; linker I:N-II:N via Actinocin(9to1)) -0.44
COc1ccc2c(c1)c(CC(=O)OCC(=O)O)c(C)n2C(=O)c1ccc(Cl)cc1 (plate: M 23-24) 0.0618
O=C1C(O)=C(O)C(=O)C(O)=C1O (plate: M 9-10) -0.279
COC(=O)C[C@H]1C(C)(C)C(=O)[C@@H]2CC3C4=CC(=O)O[C@@H](c5ccoc5)[C@]4(C)CC[C@@H]3[C@@]1(C)C2=O (some centres not stated) (plate: M 13-14) 0.583
CC(C)=CC1C(C(=O)O)C1(C)C (configuration not stated) (plate: M 19-20) 0.704
CC(C)Cn1c(=O)n(C)c(=O)c2nc[nH]c21 (plate: M 23-24) 0.446
COc1ccc2cc3[n+](cc2c1OC)CCc1cc2c(cc1-3)OCO2 (plate: M 17-18) -0.545
COc1ccc2c(c1)OC[C@@H](Cc1ccc(OC)c(OC)c1)[C@@H]2O (plate: M 19-20) 0.806
Cc1cc(O)cc(O)c1C(=O)O (plate: M 15-16) 0.472
CC(C)(C)NCC(O)COc1cccc2c1CC(O)C(O)C2 (configuration not stated) (plate: M 9-10) -0.271
CN(C)CC(=O)OC[C@@H](O)[C@@H](O)[C@H](O)[C@@H](O)C(=O)O (plate: M 21-22) 0.27
CC[C@H](C)C(=O)O[C@H]1C[C@H](O)C=C2C=C[C@H](C)[C@H](CC[C@@H](O)C[C@@H](O)CC(=O)O)[C@H]21 (plate: M 11-12) 0.232
CC1=C(C(=O)O)N2C(=O)[C@@H](NC(=O)[C@H](N)c3ccccc3)[C@H]2SC1 (plate: M 7-8) -0.243
CCC(C)C(=O)OC1[C@@H]2CC3=C4CC(=O)O[C@@H](c5ccoc5)[C@]4(C)CCC3[C@@](C)(C2=O)[C@@H](CC(=O)OC)C1(C)C (some centres not stated) (plate: M 13-14) 0.448
CC1CCC2(OC1)OC1CC3C4CCC5C[C@@H](O)CCC5(C)C4=CCC3(C)C1[C@@H]2C (stereo partly drawn) [3beta-HYDROXYISOALLOSPIROST-9(11)-ENE] (plate: M 13-14) 1.17
O=C(O)/C=C(\CC(=O)O)C(=O)O (plate: M 17-18) 0.292
Nc1nc(=O)[nH]cc1F (plate: M 13-14) 0.008
Nc1nnc(-c2cccc(Cl)c2Cl)c(N)n1 (plate: M 11-12) 0.0842
NC[C@H]1O[C@H](O[C@H]2[C@H](O)[C@@H](O[C@H]3O[C@H](CO)[C@@H](O)[C@H](N)[C@H]3O)[C@H](N)C[C@@H]2N)[C@H](N)[C@@H](O)[C@@H]1O (plate: M 5-6) 0.0191
CC(=O)O[C@]1(C(C)=O)CC[C@H]2[C@@H]3C=C(C)C4=CC(=O)CC[C@]4(C)[C@H]3CC[C@@]21C (plate: M 3-4) -0.0137
Cc1c(C)c2c(c(C)c1O)CCC(C)(CCCC(C)CCCC(C)CCCC(C)C)O2 (stereo not drawn) [alpha-TOCHOPHEROL] (plate: M 1-2) 0.443
CC(=O)/C=C\[C@@H]1[C@@]2(C)CCCC(C)(C)C2CC[C@@]1(C)O (some centres not stated) (plate: M 17-18) 0.535
C=C(C)[C@@H]1CC[C@]2(C)CC[C@]3(C)[C@H](CC[C@@H]4[C@@]5(C)CC[C@H](O)C(C)(C)[C@@H]5CC[C@]43C)[C@@H]12 (plate: M 21-22) 0.195
CCCCCCCCNC(C)C(O)c1ccc(SC(C)C)cc1 (configuration not stated) (plate: M 7-8) -0.291
C[C@H]1O[C@@H](O[C@H]2[C@@H](O)C[C@H](O[C@H]3[C@@H](O)C[C@H](O[C@H]4CC[C@@]5(C)[C@H](CC[C@@H]6[C@@H]5CC[C@]5(C)[C@@H](C7=CC(=O)OC7)CC[C@]65O)C4)O[C@@H]3C)O[C@@H]2C)C[C@H](O)[C@@H]1O (plate: M 1-2) 0.0229
COc1cc2c(cc1OC)[C@@H]1C(=O)c3ccc4c(c3O[C@@H]1CO2)C=CC(C)(C)O4 (plate: M 21-22) -0.96
S=c1[nH]cnc2nc[nH]c12 (plate: M 3-4) -0.156
NCCCCN (plate: M 19-20) 0.622
CC1=CC2C(CC1=O)C(C)=CCC2C(C)C (configuration not stated) (plate: M 17-18) 0.758
CC(C)[C@@H]1CC[C@@H](C)CC1=O (plate: M 17-18) 0.0327
CC(C)NC(=N)NC(=N)Nc1ccc(Cl)cc1 (plate: M 9-10) 0.319
C[C@]12CCC3c4ccc(OS(=O)(=O)O)cc4CCC3C1CC[C@H]2O (some centres not stated) (plate: M 21-22) 0.19
O=C1OC(=O)[C@H]2[C@@H]1[C@@H]1CC[C@H]2O1 (plate: M 23-24) 0.498
Cc1nnc(SCC2=C(C(=O)O)N3C(=O)[C@@H](NC(=O)Cn4cnnn4)[C@H]3SC2)s1 (plate: M 1-2) 0.702
O=c1[nH]c(=O)n([C@H]2C[C@H](O)[C@@H](CO)O2)cc1C(F)(F)F (plate: M 9-10) -0.258
COc1ccc2c3c1O[C@H]1C[C@@H](O)C=C[C@@]31CCN(C)C2 (plate: M 7-8) -0.0141
CCCC(=O)O[C@]1(C(=O)CO)CC[C@H]2[C@@H]3CCC4=CC(=O)CC[C@]4(C)[C@H]3[C@@H](O)C[C@@]21C (plate: M 9-10) 0.314
CC1(C)S[C@@H]2[C@H](NC(=O)COc3ccccc3)C(=O)N2[C@H]1C(=O)O (plate: M 3-4) -0.281

Entries shown so far that have a Cl atom, in the order listed:
Tryptophan fluorescence intensity z-score, inactive:
COc1ccc2c(c1)c(CC(=O)OCC(=O)O)c(C)n2C(=O)c1ccc(Cl)cc1 (plate: M 23-24) 0.0618
Nc1nnc(-c2cccc(Cl)c2Cl)c(N)n1 (plate: M 11-12) 0.0842
CC(C)NC(=N)NC(=N)Nc1ccc(Cl)cc1 (plate: M 9-10) 0.319
